This assay relates to BDF1 mice, P388 leukemia ip, median survival T/C. The assay is described as follows: NCI In Vivo Anticancer Drug Screen. Data for tumor model P388 Leukemia (intraperitoneal) in B6D2F1 (BDF1) mice. To be noted: T/C endpoint: median survival time, higher T/C = longer survival. The essentials:
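Antitumour effect was judged in vivo: survival in drug-treated mice, normalised to that of vehicle-dosed controls, gives the reported T/C.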

The mark [1] stands for this setting: dose: 200.0 mg/kg/injection, schedule: Q01DX009 (ip), vehicle: saline with Tween-80.
Setting [2] is: dose: 50.0 mg/kg/injection, schedule: Q01DX009 (ip), vehicle: Klucel (hydroxypropylcellulose) (HPC).
[3] abbreviates: dose: 100.0 mg/kg/injection, schedule: Q01DX009 (ip), vehicle: Klucel (hydroxypropylcellulose) (HPC).
Where [4] appears, read: dose: 50.0 mg/kg/injection, schedule: Q01DX009 (ip), vehicle: saline.
The mark [5] stands for this setting: dose: 100.0 mg/kg/injection, schedule: Q04DX003 (ip), vehicle: saline.
[6] abbreviates: dose: 25.0 mg/kg/injection, schedule: Q01DX009 (ip), vehicle: Klucel (hydroxypropylcellulose) (HPC).
Setting [7] is: dose: 67.0 mg/kg/injection, schedule: Q04DX003 (ip), vehicle: Klucel (hydroxypropylcellulose) (HPC).
Setting [8] is: dose: 100.0 mg/kg/injection, schedule: Q04DX003 (ip), vehicle: Klucel (hydroxypropylcellulose) (HPC).
[9] abbreviates: dose: 150.0 mg/kg/injection, schedule: Q04DX003 (ip), vehicle: Klucel (hydroxypropylcellulose) (HPC).
Setting [10] is: dose: 200.0 mg/kg/injection, schedule: Q01DX009 (ip), vehicle: Klucel (hydroxypropylcellulose) (HPC).

Molecules are shown by their SMILES. The list does not hold the whole screen: it is rich in T/C values a quarter to a half above the control, in often repeated tests (any T/C) and in doses without a T/C. Further doses and runs are listed elsewhere. T/C gives the treated animals as a percentage of the vehicle group. Some entries give survivors of the animals treated and no T/C: the source files T/C as zero there, which appears to mark a toxic dose or a test without result, not a measured value. Some survivor counts are full or nearly so, which does not show that the dose was tolerated: the source hardly ever lists a survival T/C far under the control, and the zero likely stands for such cases as well. Survivors were counted at the toxicity check, usually on the fifth day, unless a day is given; later deaths do not show. Schedule codes are those of the source, taken here to give the interval after Q, in days (D) or hours (H), and the number of doses after X. Some entries hold several experiments; the values are given in rising order. Marks such as (2×) give the number of equal values in this list. Where survival is the endpoint, this PubChem deposit counts one and a half times the control or more as active, and values a quarter to a half above the control carry no call in these data; other NCI protocols may use other cut-offs. Some T/C values are followed by the survivors on the day toxicity was checked, most often the fifth; where none is given, no animal had died by that day.

In the case of `O=C1C=C(Nc2ccc(Br)cc2)C(Nc2ccc(Br)cc2)=CC1=O`, the survivor count runs as follows: (dose: 37.5 mg/kg/injection, schedule: Q01DX009 (ip), vehicle: saline with Tween-80) 3 of 7; (dose: 75.0 mg/kg/injection, schedule: Q01DX009 (ip), vehicle: saline with Tween-80) 6 of 7; (dose: 150.0 mg/kg/injection, schedule: Q01DX009 (ip), vehicle: saline with Tween-80) 7 of 7.
For the compound `CCCCNc1c(OC)ccc2c(C)c3[n+](cc12)CCc1cc(OC)c(OC)cc1-3`, the survivor count was 6 of 6 (dose: 6.25 mg/kg/injection, schedule: Q04DX003 (ip), vehicle: water); 0 of 6 (dose: 12.5 mg/kg/injection, schedule: Q04DX003 (ip), vehicle: water); 0 of 6 (dose: 25.0 mg/kg/injection, schedule: Q04DX003 (ip), vehicle: water).
As for `Cc1cccc2nc(Oc3ccccc3)nc(=O)n12`, the survivor count under setting [1] was 0 of 6.
In the case of `CC[n+]1ccc(Cc2ccc([N+](=O)[O-])cc2)cc1`, the survivor count under setting [2] is 1 of 6 and the survivor count under setting [3] is listed as 0 of 6. Besides, the T/C under setting [3] is 127 % of control.
Consider `Cc1cc2c(C(C)C)c(O)c(O)c(C=O)c2c(O)c1-c1c(C)cc2c(C(C)C)c(O)c(O)c(C=O)c2c1O`, for which, where the note is “dose: 5.0 mg/kg/injection, schedule: Q01DX009 (ip), vehicle: saline with Tween-80”, the T/C was 129 and 144 % of control. Also, under “dose: 20.0 mg/kg/injection, schedule: Q01DX009 (ip), vehicle: saline with Tween-80”, the survivor count was 6 of 6.
For the compound `CCCCNCCC(SS)c1ccc(Cl)cc1` (stereo unspecified), the survivor count (dose: 200.0 mg/kg/injection, schedule: Q04DX003 (ip), vehicle: saline with Tween-80) is recorded as 6 of 6.
With `CC(=O)OCc1ccc(Cl)cc1`, under setting [1], the T/C is 137 % of control.
Turning to `COC(=O)C(CSCSC)NC(=O)/C=C/c1cc(OC)ccc1OC` (stereo unspecified), where the note is “dose: 400.0 mg/kg/injection, schedule: Q01DX009 (ip), vehicle: saline with Tween-80”, the survivor count is recorded as 5 of 6.
In the case of `CN(C)CCCc1c2ccccc2nc2ccc(Cl)cc12`, the T/C (dose: 25.0 mg/kg/injection, schedule: Q01DX009 (ip), vehicle: saline) is 100, 109 (2×), 140 % of control. Besides, the survivor count by setting is: under setting [4], 6 of 6; (dose: 75.0 mg/kg/injection, schedule: Q01DX009 (ip), vehicle: saline) 1 of 6; (dose: 150.0 mg/kg/injection, schedule: Q01DX009 (ip), vehicle: saline) 6 of 6; (dose: 300.0 mg/kg/injection, schedule: Q01DX009 (ip), vehicle: saline) 6 of 6.
For `CCNC(C)(C)C(SSSC(c1cccs1)C(C)(C)NCC)c1cccs1` (stereo unspecified), where the note is “dose: 400.0 mg/kg/injection, schedule: Q01DX001 (ip), vehicle: saline”, the survivor count is recorded as 0 of 6.
With `CCOC(=O)c1cnc2c(cnn2CC)c1NN=C(C)C`, under setting [5], the T/C is 133 % of control.
Take `COC1=C(Br)[C@H](O)[C@](O)(CC#N)C=C1Br`: the T/C is, setting by setting: under setting [6], 126 % of control; under setting [2], 134 % of control. Besides, under setting [3], the survivor count is on record as 5 of 6.
Consider `CC1CCC2N(C1)CC1C3(O)CC45OC6(O)C(O)CCC4(C)C6CCC5C3(O)CC(O)C1(O)C2(C)O` (stereo unspecified), for which the survivor count is recorded as 0 of 6 (dose: 15.0 mg/kg/injection, schedule: Q01DX010 (ip), vehicle: carboxymethylcellulose (CMC)); 0 of 6 (dose: 30.0 mg/kg/injection, schedule: Q01DX010 (ip), vehicle: carboxymethylcellulose (CMC)); 0 of 6 (dose: 60.0 mg/kg/injection, schedule: Q01DX010 (ip), vehicle: carboxymethylcellulose (CMC)).
`C/C(=C\c1ccccc1)[N+](=O)[O-]`: the T/C by setting is: (dose: 16.0 mg/kg/injection, schedule: Q01DX009 (ip), vehicle: Klucel (hydroxypropylcellulose) (HPC)) 146 % of control; (dose: 30.0 mg/kg/injection, schedule: Q04DX003 (ip), vehicle: Klucel (hydroxypropylcellulose) (HPC)) 125 % of control; (dose: 32.0 mg/kg/injection, schedule: Q01DX009 (ip), vehicle: Klucel (hydroxypropylcellulose) (HPC)) 138 % of control; (dose: 44.0 mg/kg/injection, schedule: Q04DX003 (ip), vehicle: Klucel (hydroxypropylcellulose) (HPC)) 140 % of control (2×); (dose: 50.0 mg/kg/injection, schedule: Q04DX003 (ip), vehicle: saline) 127 % of control; under setting [7], 145 % of control (2×). Besides, the T/C runs as follows: under setting [8], 110, 130, 140 % of control; under setting [9], 125 % of control [5 of 6 alive]. In addition, the survivor count runs as follows: (dose: 25.0 mg/kg/injection, schedule: Q04DX003 (ip), vehicle: saline) 6 of 6; under setting [4], 3 of 6; (dose: 64.0 mg/kg/injection, schedule: Q01DX009 (ip), vehicle: Klucel (hydroxypropylcellulose) (HPC)) 4 of 6; under setting [7], 5 of 6; under setting [3], 1 of 6 and 2 of 6; (dose: 100.0 mg/kg/injection, schedule: Q01DX009 (ip), vehicle: saline) 4 of 6. The survivor count reads like this: under setting [8], 4 of 6; under setting [5], 6 of 6; (dose: 150.0 mg/kg/injection, schedule: Q01DX009 (ip), vehicle: Klucel (hydroxypropylcellulose) (HPC)) 0 of 6; under setting [9], 2 of 6 and 4 of 6; under setting [10], 0 of 6; (dose: 200.0 mg/kg/injection, schedule: Q01DX009 (ip), vehicle: saline) 1 of 6. The survivor count (dose: 200.0 mg/kg/injection, schedule: Q04DX003 (ip), vehicle: saline) is 6 of 6.
Turning to `CNC=O`, the survivor count (dose: 7.5 mg/kg/injection, schedule: Q01DX010 (ip), vehicle: saline) was 6 of 6.
On to `NN=C1CCC(=NN)CC1`, for which the T/C reads like this: (dose: 25.0 mg/kg/injection, schedule: Q01DX009 (ip), vehicle: water) 134 % of control; (dose: 100.0 mg/kg/injection, schedule: Q04DX003 (ip), vehicle: water) 129 % of control. In addition, the survivor count (dose: 100.0 mg/kg/injection, schedule: Q01DX009 (ip), vehicle: water) was 4 of 6 and 6 of 6 (2×); the survivor count (dose: 200.0 mg/kg/injection, schedule: Q04DX003 (ip), vehicle: water) is listed as 3 of 6.
On to `O=C1NC(c2cccc3ccccc23)Nc2ccc(Cl)cc21` (stereo unspecified), for which the T/C under setting [6] was 135 % of control. Further, the survivor count is 5 of 6 under setting [10] and 0 of 6 (dose: 400.0 mg/kg/injection, schedule: Q01DX009 (ip), vehicle: Klucel (hydroxypropylcellulose) (HPC)).
For the compound `O=C(C(=O)c1ccc(Cl)cc1)c1ccc(Cl)cc1`, the survivor count (dose: 50.0 mg/kg/injection, schedule: Q04DX003 (ip), vehicle: other) is reported as 6 of 6.
With `COc1cc(Br)c(/C=C(\C)[N+](=O)[O-])cc1OC`, the survivor count (dose: 400.0 mg/kg/injection, schedule: Q01DX001 (ip), vehicle: saline with Tween-80) was 0 of 6.
For the compound `O=C(/C=C/c1ccc(OCc2ccccc2)cc1)c1ccccc1Cl`, the T/C under setting [1] is 131 % of control.
Turning to `Nc1nc(SCc2cccc(Br)c2)c2ncn(C3OC(CO)C(O)C3O)c2n1` (stereo unspecified), for the setting “dose: 400.0 mg/kg/injection, schedule: Q04DX003 (ip), vehicle: saline with Tween-80”, the survivor count is given as 0 of 6.

Values taken from PubChem BioAssay AID328 (DTP/NCI, 2004).
